The whole screen tested about 360,000 compounds, of which about 10,000 (2.8%) were called active. The shares of active, inactive and inconclusive entries below differ from those in the screen. Calls come from the whole dose curve; as a rule, active = well fitted inhibition curve with a large enough effect; inconclusive = small, poorly fitted or top-dose-only effect; inactive = flat fitted curve, though single readings scatter. A potency beside an inconclusive call is a rough fit, not a confirmed value.
biological target: Serine/threonine-protein kinase PLK1 (Homo sapiens) (UniProt P53350); experiment: qHTS for Inhibitors of PLK1-PDB (polo-like kinase 1 - polo-box domain): Primary Screen; details: Plk1 PBD binding of FITC phosphopeptide, fluorescence polarization; note: nearly all actives have a fitted effect of over 65% in size; for max response, negative = inhibition: series mostly up to about 57 µM
% is set by controls: 0 for no effect and ±100 for the full control effect; potency is the fitted concentration of half-maximal effect.

Chains of the proteins cited; added tags and fusions are not shown.
UniProt P53350, whole entry, looked up: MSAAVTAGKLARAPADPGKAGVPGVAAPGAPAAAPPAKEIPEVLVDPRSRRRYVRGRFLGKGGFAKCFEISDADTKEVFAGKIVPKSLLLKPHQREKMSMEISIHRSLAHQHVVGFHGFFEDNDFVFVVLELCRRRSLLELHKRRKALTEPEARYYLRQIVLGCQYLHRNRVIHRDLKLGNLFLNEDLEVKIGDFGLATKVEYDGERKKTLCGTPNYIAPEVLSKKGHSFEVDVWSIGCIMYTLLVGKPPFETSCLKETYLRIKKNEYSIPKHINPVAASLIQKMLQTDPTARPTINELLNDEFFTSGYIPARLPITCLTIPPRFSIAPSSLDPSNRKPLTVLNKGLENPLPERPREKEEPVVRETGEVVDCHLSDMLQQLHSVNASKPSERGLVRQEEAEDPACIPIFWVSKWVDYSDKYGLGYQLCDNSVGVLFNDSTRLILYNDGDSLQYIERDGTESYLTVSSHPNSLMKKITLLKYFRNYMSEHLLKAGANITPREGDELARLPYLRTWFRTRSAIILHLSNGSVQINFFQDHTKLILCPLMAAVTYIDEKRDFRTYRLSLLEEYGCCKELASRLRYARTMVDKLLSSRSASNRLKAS

SMILES	Potency	max response, negative = inhibition
Cc1ccc2[nH]c3nc(SCCN4CCOCC4)nnc3c2c1	inconclusive: 29.9 µM [inhibitor, partial curve]	–
O=C1CC(C(=O)O)S/C(=N\NC(=O)c2ccccc2)N1 (stereo not given)	–	inactive: -2.15%
Cc1cc(C)n2ncnc2n1	–	inactive: -5.4%
CCOC(=O)c1c(NC(=O)c2cccnc2)sc(C)c1C	–	inactive: -8.07%
N#Cc1cc(C(=O)c2cc(Br)ccc2O)cn(C2CC2)c1=O	–	inactive: -7.87%
CCc1ccc(N2C(=O)C3CCCN3C2=S)cc1 (stereo not given)	active: 11.9 µM	–
CCN(CC)C(=O)c1ccccc1NS(C)(=O)=O	inconclusive: 18.9 µM [inhibitor, partial curve]	–
CC(C)OC(=O)c1c(N)sc2c1CCCC2	active: 23.8 µM	–
COc1ccc(-c2n[nH]c(=S)n2C2CCCCC2)cc1	–	inactive: -6.59%
Cc1c(C(=O)c2no[n+]([O-])c2C(=O)c2cnn(C)c2C)cnn1C	inconclusive: 23.8 µM [inhibitor, partial curve]	–
Nc1c(Cl)ncnc1N1CCN(c2ncnc(Cl)c2N)CC1	inconclusive: 8.44 µM [inhibitor, single point]	–
CCOC(=O)/C(C#N)=C\c1cn(C)c2ccccc12	–	inactive: -16.9%
O=C(COc1cccc2ccccc12)N/N=C/c1ccc(Sc2nc3ccccc3s2)o1	inconclusive: 37.7 µM [inhibitor, single point]	–
O=C1C=CC(=O)N1CCCCCCN1C(=O)C=CC1=O	active: 3.36 µM	–
Cc1ccc(-n2sc3cc(F)ccc3c2=O)c(C)c1	active: 2.99 µM	–
Cc1ccc(-n2cc[nH]c2=S)cc1C	–	inactive: -25.7%
COc1ccc(CCC(=O)O)c(C(CC(=O)O)C(=O)O)c1OS(=O)(=O)c1ccc(C)cc1 (stereo not given)	–	inactive: 2.98%
CCNCc1ccccc1OCc1ccccc1	inconclusive: 6.7 µM [inhibitor, partial curve]	–
COc1ccc(C(=O)Nc2ccccc2C(=O)Nc2ccccc2C(=O)O)cc1	inconclusive: 37.7 µM [inhibitor, single point]	–
O=C(Nc1sc2c(c1C(=O)O)CCC2)C(=O)N1CCOCC1	–	inactive: -23.5%
CC(=O)N1CCC2(CC1)C/C(=N\NC(=S)Nc1ccccc1F)c1cc(O)ccc1O2	inconclusive: 18.9 µM [inhibitor, partial curve]	–
CCc1nnc(NC(=O)c2cc(Cl)ccn2)s1	inconclusive: 18.9 µM [inhibitor, partial curve]	–
O=C(O)c1ccc(OCCCCCCOC2CCCCO2)cc1 (stereo not given)	active: 26.7 µM	–
CC(NC(=S)NC(=O)c1ccccc1Br)c1ccccc1 (stereo not given)	inconclusive: 23.8 µM [inhibitor, partial curve]	–
O=C(CSc1n[nH]c(-c2ccccc2Cl)n1)NC1CCCCC1	inconclusive: 0.947 µM [inhibitor, partial curve, poor fit]	–

SMILES	Potency	max response, negative = inhibition
c1ccc(-c2cccc(-c3ccccc3)n2)cc1	–	inconclusive: -31.9% [inhibitor]
C=C(CN(C)C)C(=O)c1ccc(C)cc1C	active: 2.67 µM	–
Cc1c(N2C(=O)/C(=C/C3CC=CCC3)SC2=S)c(=O)n(-c2ccccc2)n1C (stereo not given)	inconclusive: 21.2 µM [inhibitor, partial curve]	–
C=CC[n+]1ccc(/C=C2\C=Cc3cc(C)ccc3N2CC)c2ccccc21	–	inactive: -17.6%
O=C(O)c1cc(NN=Nc2ccc(Br)cc2)cc([N+](=O)[O-])c1	inconclusive: 23.8 µM [inhibitor, partial curve]	–
Cc1cccc(OCCOCCN2CCNCC2)c1C	–	inconclusive: -34.4% [inhibitor]
CC(=O)Nc1nc2ccccc2n1Cc1ccc(Cl)cc1	inconclusive: 23.8 µM [inhibitor, partial curve]	–
COc1ccccc1CNC(=O)CN1C(=O)C(C)N(c2ccc(C)cc2)C1=O (stereo not given)	inconclusive: 26.7 µM [inhibitor, single point]	–
Cc1cc(C(=O)NCc2ccccc2)c(=O)[nH]c1C	–	inactive: -5.06%
Cc1cc(F)ccc1S(=O)(=O)Nc1ncnc2scc(-c3ccc(F)cc3)c12	inconclusive: 23.8 µM [inhibitor, single point]	–
COc1ccc(N2CCN(C(=S)NCCc3ccccc3)CC2)cc1	active: 26.7 µM	–
O=C(c1ccccc1[N+](=O)[O-])N1CCN(Cc2ccc3c(c2)OCO3)CC1	inconclusive: 37.7 µM [inhibitor, single point]	–
O=C(CSc1ncccc1-c1nc2ccccc2[nH]1)NCc1ccco1	active: 18.9 µM	–
COc1ccc(C(=O)Nc2ccc(N3CCOCC3)cc2)cc1OC	–	inactive: -1.9%
Oc1ccc(C2C[C@H]3CC[C@@H]2C3)cc1O (stereo not given in full)	inconclusive: 23.8 µM [inhibitor, single point]	–
Cc1ccccc1NC(=O)Cc1nc(CCl)cs1	inconclusive: 26.7 µM [inhibitor, single point]	–
CCSc1nnc(NC(=O)C2Cc3ccccc3CN2C(=O)c2ccco2)s1 (stereo not given)	inconclusive: 6.7 µM [inhibitor, full curve]	–
CN(C)c1ccc(Cc2cc3c(O)ccc(O)c3cc(Cc3ccc(N(C)C)cc3)c2=O)cc1	active: 0.947 µM	–
CCN(CC)S(=O)(=O)c1cc(C(=O)OCC(=O)Nc2cccc(C)c2C)ccc1F	inconclusive: 37.7 µM [inhibitor, single point]	–
CCc1ccc(S(=O)(=O)N/N=C(/C)c2ccncc2)cc1	inconclusive: 26.7 µM [inhibitor, partial curve]	–
O=C(O)COc1ccccc1/C=N/NC(=O)c1cc(-c2ccc(Cl)cc2)nc2ccccc12	inconclusive: 37.7 µM [inhibitor, single point]	–
O=C(CCSc1ccccn1)c1ccccc1	inconclusive: 29.9 µM [inhibitor, partial curve]	–
Cc1ccc(/C=N/n2c(-c3ccc(Cl)cc3)n[nH]c2=S)s1	inconclusive: 23.8 µM [inhibitor, partial curve]	–
COc1ccc(CCN2CC(C(=O)Nc3ccc4c(c3)OCO4)CC2=O)cc1OC (stereo not given)	inconclusive: 26.7 µM [inhibitor, partial curve]	–
CS(=O)(=O)c1nc(-c2ccccc2)cc(C(F)(F)F)n1	active: 23.8 µM	–

Among those listed so far, 2 have a cyano group:
SMILES	Potency	max response, negative = inhibition
N#Cc1cc(C(=O)c2cc(Br)ccc2O)cn(C2CC2)c1=O	–	inactive: -7.87%
CCOC(=O)/C(C#N)=C\c1cn(C)c2ccccc12	–	inactive: -16.9%

Quoted from the listing:
Under Potency, O=C(COc1cccc2ccccc12)N/N=C/c1ccc(Sc2nc3ccccc3s2)o1 is entered as inconclusive: 37.7 µM [inhibitor, single point]
Under Potency, C=C(CN(C)C)C(=O)c1ccc(C)cc1C is entered as active: 2.67 µM

Further records follow.

SMILES	Potency	max response, negative = inhibition
O=C(O)CN1C(=O)C=CC1=O	inconclusive: 26.7 µM [inhibitor, single point]	–
COC(=O)/C(=C\C(=O)c1ccc([N+](=O)[O-])cc1)Nc1ccc(OC)cc1	–	inactive: -3.54%
CC(OC(=O)CCNS(=O)(=O)c1ccc(Cl)cc1)C(=O)N(C)Cc1ccccc1 (stereo not given)	–	inactive: -0.711%
CCc1cc2ccccc2nc1SCC(=O)Nc1cc(OC)c(OC)cc1C(=O)O	inconclusive: 18.9 µM [inhibitor, partial curve]	–
CCN(CC(=O)Nc1ccccc1C(F)(F)F)C(=O)c1ccc(N2C(=O)CCC2=O)cc1	–	inactive: -9.63%
O=C(NC(=S)Nc1ccccn1)c1cccc([N+](=O)[O-])c1	–	inactive: -8.24%
O=C(O)C(Cc1ccccc1)n1cccc1 (stereo not given)	inconclusive: 16.8 µM [inhibitor, partial curve]	–
COc1ccc(N2C(=O)CC(Sc3ncn[nH]3)C2=O)c(OC)c1 (stereo not given)	active: 29.9 µM	–
Cc1csc(NC(=O)c2ccc(C)s2)n1	inconclusive: 16.8 µM [inhibitor, partial curve]	–
Cc1cc(=O)[nH]c2ccc(Cl)cc12	inconclusive: 29.9 µM [inhibitor, partial curve]	–
COc1ccc(-c2noc(CN(C)Cc3ccc(C)o3)n2)cc1	inconclusive: 29.9 µM [inhibitor, partial curve]	–
O=Cc1c(NCCCN2CCCC2=O)c2ccccc2[nH]c1=O	inconclusive: 23.8 µM [inhibitor, single point]	–
Cc1[nH]c2ccccc2c1-c1csc(NC(=O)CN2CCOCC2)n1	inconclusive: 33.6 µM [inhibitor, single point]	–
O=[N+]([O-])c1ccc2cn(C3OC(CO)C(O)C3O)nc2c1 (stereo not given)	–	inactive: -8.58%
C=CCn1c(C(C)NC(=O)c2ccccc2)n[nH]c1=S (stereo not given)	–	inactive: -5.37%
CN(C(=O)COC(=O)/C=C/c1ccccc1[N+](=O)[O-])c1ccccc1	–	inactive: 1.25%
O=C(O)c1cccc(-n2cccc2C=C2C(=O)c3ccccc3C2=O)c1	inconclusive: 23.8 µM [inhibitor, single point]	–
CC(C)C(C)(C#N)NC(=O)CSc1nc2scc(-c3ccccc3)c2c(=O)[nH]1 (stereo not given)	inconclusive: 29.9 µM [inhibitor, partial curve]	–
O=C(CSc1ccc2c(c1)OCCO2)Nc1ccc2c(c1)OCO2	inconclusive: 23.8 µM [inhibitor, partial curve]	–
Cc1cc(C)nc(NS(=O)(=O)c2ccc(NC(=O)C3(c4ccc([N+](=O)[O-])cc4)CCCC3)cc2)n1	–	inactive: -8.99%
O=[N+]([O-])c1ccc(Sc2ccncn2)c([N+](=O)[O-])c1	inconclusive: 29.9 µM [inhibitor, partial curve]	–
CCCc1nc2ccc(C(=O)OC)cn2c1Cc1ccccc1C(F)(F)F	–	inactive: -9.62%
C=CSc1sc(Cl)c(N2CCOCC2)c1[N+](=O)[O-]	–	inactive: -15.2%
CSc1ccccc1OCc1cc(C(=O)N(C)CCn2nc(C)cc2C)no1	active: 3.36 µM	–
Cc1ccc([C@H]2C(C(=O)O)=CC[C@@H](c3ccc(C)cc3)N2S(=O)(=O)c2ccc(C)cc2)cc1	inconclusive: 37.7 µM [inhibitor, single point]	–
